# Laboratory results from patent publication US20060019262.
# What was measured:
# [1] = target: T1, APOBEC1 (Rattus norvegicus) (UniProt P38483); experiment: enzyme reaction in vitro; conditions: purified recombinant protein, label: 5'-biotin
# T1 sequence (looked up, limits assumed): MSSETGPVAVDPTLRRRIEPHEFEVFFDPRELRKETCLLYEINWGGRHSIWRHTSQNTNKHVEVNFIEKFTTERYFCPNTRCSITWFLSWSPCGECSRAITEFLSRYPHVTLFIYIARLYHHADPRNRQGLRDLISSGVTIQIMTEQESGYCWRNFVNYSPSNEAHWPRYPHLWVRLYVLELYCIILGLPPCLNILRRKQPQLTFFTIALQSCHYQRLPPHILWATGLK
# [2] = target: T2, APOBEC1 E63A (Rattus norvegicus) (UniProt P38483); experiment: enzyme reaction in vitro; conditions: no deamination, Zn-coordination motif mutant; purified recombinant protein; label: 5'-biotin, 3'-fluorescein or 3'-32P-ddA; single-stranded DNA
# T2 sequence (looked up, limits assumed): T1 sequence (looked up, limits assumed) with E63A
# [3] = deamination disfavoured with purine 5' of C, assignment from text rule, 3' label, single-stranded DNA
# [4] = 5' pyrimidine context, assignment from text rule, 3' label, single-stranded DNA
Sequence,"activity on this sequence [1, 3]","activity on this sequence [1, 4]",further results
ATTATTATTATTAGCTATTTATTTATTTATTTATTTATTT [oligo with AGC context],less active,,
ATTATTGTTATTAACTATTTGTTTATTTGTTTATTTATTT [oligo with AACT context],less active,,
ATTATTATTATTCCGCGGATTTATTTATTTATTTATTTATTT [SPM168],,,"activity on this sequence ([1]; dC deamination by UDG assay, buffer R, 37 C, EDTA, third C of TCCGCG much less favoured, 3'-fluorescein or 3'-32P-ddA, single-stranded DNA): active; activity on this sequence [2]: not active"
ATTATTGTTATTATCGATTTGTTTATTTGTTTATTTATTT [oligo with ATCG context],,active,
ATTATTATTATTCCGCGGATTTATTTATTTATTTATTTATTT (double strand) [SPM168 duplex with complement],,,"activity on this sequence ([1]; activity blocked by complementary oligonucleotide, not by irrelevant one, 3' label, variant of SPM168): not active"
ATTATTGTTATTATCAATTTGTTTATTTGTTTATTTATTT [oligo with ATCA context],,active,

# Substitutions are numbered along the chain they refer to. The exact form of at least one protein or probe is not confirmed. Negatives hold for the conditions tested. Where a protein sequence is shown, tags need not be part of it. For some of these results: The comparison behind a weaker result is the experiment's own reference, which may not be listed here.
